No constants are given. Whether binding was seen depends on the method and setting. Sequences can lack the tags named with a protein.

For the assay, the target named is full length p53 (human), P04637. The assay is described as follows: ELISA; p53 absorbed onto the solid phase; GST-tagged proteins titrated in solution phase; detected with GST antibodies, peroxidase conjugated secondary antibodies, chemiluminescence (RLU); both purified. The settings on record: remark: other sources report otherwise.

B1: GST-tagged AGR2, O95994 21-175 (protein)
chain: RDTTVKPGAKKDTKDSRPKLPQTLSRGWGDQLIWTQTYEEALYKSKTSNKPLMIIHHLDECPHSQALKKVFAENKEIQKLAEQFVLLNLVYETTDKHLSPDGQYVPRIMFVDPSLTVRADITGRYSNRLYAYEPADTALLLDNMKKALKLLKTEL
With B1, the binding entry is “no binding”.

The record behind these values is paper PMC5490336.
